Values from PubChem BioAssay AID686938 (Drosophila RNAi Screening Center, 2013).

Screen: 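Looking for CRAC channel components and the factors controlling them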 (primary screen)
Cell system: Drosophila S2R+ cells
Knock-down reagent: long dsRNA against Drosophila genes, about 0.25 µg dsRNA per well, roughly 10,000 cells
Time to read-out: 5 days of knock-down before the calcium assay
Challenge: thapsigargin (SERCA pump blocker) to empty calcium stores; entry signal taken 4 min after adding it
Detection: 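Duplicate raw fluo-4 intensities per well from a plate reader, at rest and four minutes after thapsigargin emptied calcium stores; entry-to-rest ratio filled for only some wells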
Scale: calcium entry signal: higher = stronger calcium signal after store depletion; entry to resting ratio: higher = more calcium entry relative to resting level; resting calcium signal: higher = higher resting calcium signal
Units: calcium entry signal in fluorescence units; resting calcium signal in fluorescence units
Active means: 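Hit if the duplicate-averaged plate z-score for entry over resting signal is under −3; wells with weak total dye signal (Fmax z < −2) or more than 5 off-targets removed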
Meaning of the calls: active = strongly reduced calcium entry; inactive = no strong reduction
The screen tested about 23,000 reagents; this is a random part of those that have a named target and a result. Over the whole deposit, 75 (0.33%) are marked active. 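Raw plate signals without normalisation; calls rest on plate z-scores that were not deposited; ratio present for only 364 wells.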 Reagents against one gene are numbered here. Not stated in the record: the dose of the treatment.

| target gene | reagent no. | calcium entry signal, replicate 1 | calcium entry signal, replicate 2 | entry to resting ratio | resting calcium signal, replicate 1 | resting calcium signal, replicate 2 | outcome |
| --- | --- | --- | --- | --- | --- | --- | --- |
| Atg14 (GeneID 43438) | 1 | 2.86e7 | 3.47e7 | – | 1.34e7 | 1.77e7 | inactive |
| snama (GeneID 37857) | 1 | 3.65e7 | – | – | 1.75e7 | – | inactive |
| Bka (GeneID 46032) | 1 | 2.64e7 | 3.85e7 | – | 1.46e7 | 1.86e7 | inactive |
| BHD (GeneID 38793) | 1 | 4.50e7 | 2.86e7 | – | 3.06e7 | 1.29e7 | inactive |
| BHD (GeneID 38793) | 2 | 3.21e7 | 3.91e7 | – | 1.68e7 | 1.81e7 | inactive |
| Vps2 (GeneID 43164) | 1 | 3.60e7 | 3.91e7 | – | 1.96e7 | 2.10e7 | inactive |
| SP1173 (GeneID 38744) | 1 | 4.01e7 | 3.43e7 | – | 2.76e7 | 1.48e7 | inactive |
| CngB (GeneID 37479) | 1 | 2.44e7 | – | – | 1.33e7 | – | inactive |
| CG42249 (GeneID 32043) | 1 | 3.76e7 | 4.92e7 | – | 1.76e7 | 2.44e7 | inactive |
| CG42249 (GeneID 32043) | 2 | 4.52e7 | 4.12e7 | – | 2.08e7 | 1.75e7 | inactive |
| Sgs8 (GeneID 39285) | 1 | 2.47e7 | 3.74e7 | – | 1.36e7 | 1.68e7 | inactive |
| CG17300 (GeneID 39489) | 1 | 2.64e7 | 3.82e7 | – | 1.42e7 | 1.62e7 | inactive |
| CG42541 (GeneID 31344) | 1 | 2.49e7 | 3.66e7 | – | 1.30e7 | 1.72e7 | inactive |
| CG42541 (GeneID 31344) | 2 | 1.83e7 | 3.23e7 | – | 1.06e7 | 1.71e7 | inactive |
| CG42541 (GeneID 31344) | 3 | 2.57e7 | 3.38e7 | – | 1.33e7 | 1.56e7 | inactive |
| CG11635 (GeneID 35808) | 1 | 3.71e7 | 4.06e7 | – | 1.80e7 | 1.88e7 | inactive |
| PolE2 (GeneID 38661) | 1 | 3.93e7 | 2.31e7 | – | 2.61e7 | 1.07e7 | inactive |
| ChT (GeneID 42245) | 1 | 2.26e7 | 2.20e7 | – | 1.26e7 | 1.09e7 | inactive |
| asf1 (GeneID 40141) | 1 | 2.00e7 | 2.74e7 | – | 1.08e7 | 2.15e7 | inactive |
| CG30114 (GeneID 246465) | 1 | 2.40e7 | 4.58e7 | – | 1.18e7 | 2.20e7 | inactive |
| CREG (GeneID 42092) | 1 | 3.82e7 | 6.10e7 | – | 1.79e7 | 9.39e7 | inactive |
| Vha68-1 (GeneID 45668) | 1 | 5.12e7 | 3.94e7 | – | 2.26e7 | 1.67e7 | inactive |
| CG6023 (GeneID 32814) | 1 | 3.51e7 | 3.78e7 | – | 1.54e7 | 1.66e7 | inactive |
| CG4991 (GeneID 32695) | 1 | 3.68e7 | 4.14e7 | – | 1.68e7 | 1.84e7 | inactive |
| Mal-A4 (GeneID 35827) | 1 | 3.92e7 | 4.10e7 | – | 1.88e7 | 1.89e7 | inactive |
| Eaat1 (GeneID 34251) | 1 | 3.59e7 | 4.83e7 | – | 1.51e7 | 2.00e7 | inactive |
| CG34320 (retired record) (GeneID 5740595) | 1 | 4.72e7 | 3.49e7 | – | 2.17e7 | 1.58e7 | inactive |
| ham (GeneID 35135) | 1 | 2.57e7 | 4.49e7 | – | 1.44e7 | 1.91e7 | inactive |
| ham (GeneID 35135) | 2 | 4.35e7 | 4.53e7 | – | 2.08e7 | 1.81e7 | inactive |
| ham (GeneID 35135) | 3 | 4.14e7 | 2.22e7 | – | 2.01e7 | 1.18e7 | inactive |
| ham (GeneID 35135) | 4 | 3.45e7 | 3.94e7 | – | 1.84e7 | 1.83e7 | inactive |
| CG14817 (GeneID 31145) | 1 | 6.14e7 | 6.19e7 | 2.4 | 2.60e7 | 2.31e7 | inactive |
| CG5561 (GeneID 33321) | 1 | 4.59e7 | 5.41e7 | – | 2.08e7 | 2.36e7 | inactive |
| CG13004 (GeneID 32673) | 1 | 3.56e7 | 3.07e7 | – | 1.87e7 | 1.58e7 | inactive |
| fz (GeneID 45307) | 1 | 3.80e7 | 4.38e7 | – | 1.69e7 | 1.91e7 | inactive |
| lncRNA:CR43270 (GeneID 12798463) | 1 | 4.03e7 | 3.19e7 | – | 2.19e7 | 1.48e7 | inactive |
| form3 (GeneID 3346238) | 1 | 3.40e7 | 3.54e7 | – | 1.46e7 | 1.58e7 | inactive |
| form3 (GeneID 3346238) | 2 | 4.77e7 | 3.03e7 | – | 2.84e7 | 1.46e7 | inactive |
| form3 (GeneID 3346238) | 3 | 3.08e7 | 3.78e7 | – | 1.55e7 | 1.66e7 | inactive |
| halo (GeneID 33334) | 1 | 4.44e7 | 6.41e7 | – | 2.00e7 | 2.32e7 | inactive |

Look-ups from the list:
Entry of snama (GeneID 37857) under “resting calcium signal, replicate 1”: 1.75e7
Under “calcium entry signal, replicate 2”, ham (GeneID 35135) #4 is entered as 3.94e7
